Measurements from article PMC10163288.
The list shows a part of the results.

B1: il10ra_site1_sap_22_mot_HHH_b1_03859_af2_000000004_0001_44_57_H_._HHH_b1_05263_0001_0000100013_0000002_0_0001_af2pred_0001 (protein)
chain: SSSSDEELILRALLRQLELALRHGDEELFERLLRAAKLAAELRNDEEIRKLLEELEKEVNSSSSS
B2: il10ra_site1_normal_mot_HHH_b1_04771_000000013_0001_40_56_H_._HHH_b2_03230_0001_0000300024_0000001_0 (protein)
chain: SSSSSDVEEAAELSLEAFRLALRGDPEQAREVLEEALEIAEEGGDERLARVIEDLLELLSSSSSS
B3: il10ra_site1_normal_mot_HHH_b1_00999_000000080_0001_41_55_H_._HHH_b2_01363_af2_0001_0000100001_0000002_0 (protein)
chain: SSSSSSEEVEEEVERLLEEAKEIEDPEEAMRVLLEALQIALRNNNKELLQLVWRIIKELGSSSSS
B4: il10ra_site1_normal_mot_HHH_b1_04771_000000013_0001_40_56_H_._HHH_b1_02827_0001_0000100001_0000002_0 (protein)
chain: SSSSDEELQQALELSLEAFRLALRGNPEEARKVLEEAEELVREAGDPQLLETIEELLKALSSSSS
B5: il10ra_site1_sap_24_mot_HHH_b1_06912_af2_000000235_0001_1_15_H_._HHH_b1_04651_0001_0000100003_0000001_0_0001 (protein)
chain: SSSSDQELYRKVEELIEEAIELQRRGNPEEARRLLEELLEELEELNNPNMLYNVRHLLKAISSSS
B6: il10ra_site1_sap_19_mot_HHH_b1_07527_000000076_0001_1_15_H_._HHH_b1_00461_af2_0001_0000100005_0000001_0_0001_af2pred_dldesign_0_af2pred (protein)
chain: SPEERIAAGIRAAAAQAGVPRVEVEFKDGVVRVTLTGDPEACAAALTKAEAIAKLNNLKLEVELR
B7: il10ra_site1_normal_mot_HHH_b2_03220_af2_000000223_0001_23_40_H_._HHH_b1_01682_af2_0001_0000100007_0000001_0 (protein)
chain: SSSSNEEVWELIREALELLADGDKEEAEKVAEEALELAREAGSEALEFAIRLLEEAIRLRSSSSS
B8: il10ra_site1_normal_mot_HHH_b2_08144_af2_000000046_0001_38_52_H_._HHH_b2_06212_af2_0001_0000100004_0000001_0 (protein)
chain: SSSSSEELEEAFKALRRLAELAHEGNPEEFKELAEKAQEIVEELGNELLEIQLEFLKRLVLSSSS
B9: il10ra_site1_sap_17_mot_ems_4hM_4652_af2_000000118_0001_50_63_H_._HHH_b1_00111_0001_0000100006_0000002_0_0001 (protein)
chain: SSSSDEEEEKLARLMEKMVEAFIRNDKEEVEKLTEEAEELAKELGNEQLLKFLENLRRALSSSSS
B10: il10ra_site1_normal_mot_ems_3hM_235_000000244_0001_46_64_H_._HHH_b1_07791_af2_0001_0000400011_0000001_0 (protein)
chain: SSSSTALERVWELARRILELVRQGDHERAEELLEEVEELLEETGSPIIESVLRALKILLGSSSSS

Each binder was assayed against il10ra, Q13651 (assay: yeast display titration).

Apparent Kd, inactive:
B1 no binding seen
B2 no binding seen
B3 no binding seen
B4 no binding seen
B5 no binding seen
B6 no binding seen
B7 no binding seen
B8 no binding seen
B9 no binding seen
B10 no binding seen

Taken from the listing (2 entries):
Apparent Kd, inactive:
B6 no binding seen
B7 no binding seen
